Some of the results follow. Further columns of the screen follow, without active or inactive calls. Compounds called inactive in the main read-out are mostly missing here. Potencies come from curve fits of mixed quality, noted in brackets.

The nature of the experiment: qHTS Assay to Find Inhibitors of Chronic Active B-Cell Receptor Signaling. As to conditions: ABC-DLBCL IkBa-CBG/CBR reporter, luminescence ratio (green luciferase fused to IkBa over red control in TMD8 lymphoma cells), 4 h; measured here: CBR red luminescence, cell number. In outline: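 Cell line TMD8 (human ABC DLBCL), stably expressing tet-inducible CBG68-IkBa fusion and CBR; IMDM/0.5% FBS; cpd up to 46 uM; dox induction, 4 h, 37C/5% CO2; dual luminescence; green/red ratio; MG132 control.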
In the case of `Cc1ccc(NC(=O)C/C(N)=N/OC(=O)Nc2cccc(Cl)c2)cc1`, the half-maximal activity concentration (AC50) is 23.1 µM [rising, single point].

For the compound `COc1ccc(NC(=O)CNS(=O)(=O)c2cccs2)cc1`, the AC50 is 13 µM [rising, partial curve, poor fit].

On to `Cn1c(=O)c([N+](=O)[O-])c(-n2ccnc2)c2ccccc21`, for which the concentration at half-maximal activity (AC50) was 14.1 µM [falling, partial curve].

In the case of `Cc1noc(C)c1COC(=O)c1ccc2c(c1)S(=O)(=O)c1ccccc1C2=O`, the concentration at half-maximal activity (AC50) is 17.8 µM [rising, partial curve, poor fit].

For the compound `COc1cc(NC(=S)NC2CC(C)(C)NC(C)(C)C2)c(OC)cc1Cl`, the AC50 is 11.2 µM [falling, partial curve].

As to `Clc1ccc(-c2nnc(CSc3nnc(-c4cccs4)n3Cc3ccccc3)o2)cc1`, the AC50 is 18.4 µM [falling, partial curve, poor fit].

Turning to `COC(=O)c1ccc(NC(=O)CN(c2ccc3c(c2)OCO3)S(C)(=O)=O)cc1`, the AC50 is 4.11 µM [rising, partial curve, poor fit].

On to `CC1(C)COC(c2cccn2Cc2ccc(F)cc2Cl)=N1`, for which the AC50 was 6.31 µM [falling, single point].

For `COc1ccc(/C(O)=C/C(=O)C(=O)NNC(=O)c2ccccc2)cc1`, the AC50 is 35.5 µM [falling, single point].

On to `CC(=O)Nc1ccc(C(=O)OCC(=O)N2CCCC2)cc1`, for which the AC50 was 17.8 µM [rising, single point].

With `O=C(N/N=C/c1c[nH]c2ccc(Br)cc12)c1ccncc1`, the half-maximal activity concentration (AC50) is 29.1 µM [falling, single point].

Take `COc1ccc(CN2C(=O)c3ccccc3C(/C=N\OCc3ccc(C)cc3)C2=O)cc1` (stereo not drawn): the concentration at half-maximal activity (AC50) is 0.1 µM [falling, full curve, poor fit].

With `COc1ccc(-c2nc(CS(=O)(=O)CC(=O)NCCc3ccccc3)c(C)o2)cc1`, the AC50 was 35.5 µM [rising, single point].

As to `[O-][n+]1c2ccccc2cc2ccccc21`, the AC50 is 20.6 µM [falling, partial curve].

For the compound `CS(=O)(=O)c1cccc(C(=O)OCC(=O)Nc2ccc3c(c2)OCO3)c1`, the AC50 was 29.1 µM [rising, single point].

For the compound `Cc1ccc(S(=O)(=O)N2CCCC2CNC(=O)C(=O)Nc2ccc(F)cc2)cc1` (stereo not drawn), the concentration at half-maximal activity (AC50) is 13 µM [falling, partial curve].

In the case of `CC(C)NC(=NCc1ccc(Cl)cc1Cl)Nc1ccccc1`, the half-maximal activity concentration (AC50) is 17.8 µM [falling, partial curve].

Regarding `Cc1ccc(CCCOC(=O)C[N+]2(C)CCCC2)cc1`, the concentration at half-maximal activity (AC50) is 13 µM [rising, partial curve, poor fit].

What is called AC50 is the concentration giving half of the maximal activity seen.

These data come from PubChem BioAssay AID493014 (National Center for Advancing Translational Sciences (NCATS), 2011).
